Laboratory results taken from PubChem BioAssay AID504444 (National Center for Advancing Translational Sciences (NCATS), 2011).
Out of some 360,000 compounds screened, about 7,500 (2.1%) were called active. Inconclusive results, whose numbers are uncertain, are shown with a selection of clear calls. Calls follow the shape of the dose curve; as a rule, active = well fitted inhibition curve with a large enough effect; inconclusive = small, poorly fitted or top-dose-only effect, or effect the other way; inactive = flat fitted curve, though single readings scatter. Potencies of inconclusive entries are doubtful fits and often do not repeat.
% is scaled to controls: 0 for no effect and ±100 for the full control effect; potency is read from the fitted curve at half-maximal effect.

Experiment: Nrf2 qHTS screen for inhibitors; also: nearly all actives have a fitted effect of over 60% in size
Details: A549 ARE-Fluc reporter, luciferase luminescence, 18-24 h; activity change, negative = inhibition: at 46 µM (top of the series)
Summary of the method: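 In this cell-based qHTS, ARE-driven firefly luciferase in A549 cells reports Nrf2 activity; the luminescent signal after BugLite lysis is the measured value, with a prior CellTiter-Fluor read for cell health.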
In the case of `CC(C)(C)OC(=O)N/N=C/c1cccc([N+](=O)[O-])c1`, the Potency is reported as inconclusive: 6.51 µM [activator, single point].
For `CCCc1cc(=O)oc2c3c(cc(OCC(=O)NCCN4CCOCC4)c12)OC(C)(C)CC3`, the Potency was inconclusive: 13 µM [falling, partial curve, poor fit].
With `Cc1ccccc1Cn1c(=O)n(Cc2ccco2)c(=O)c2sc3ccccc3c21` the “activity change, negative = inhibition” value was inactive: 1.03%.
For `COC(=O)c1ccccc1NC(=O)C1CC=CCC1C(=O)O` (stereo not given), the “activity change, negative = inhibition” value was inactive: -21.4%.
In the case of `CCOc1ccc2[nH]c(=O)c(CN(CCCO)S(=O)(=O)c3ccc(F)cc3)cc2c1`, the Potency is reported as inconclusive: 32.6 µM [falling, single point].
With `CCOc1cc(/C=N\NC(=O)c2ccc(NC(=O)CC)cc2)ccc1OC(=O)c1ccccc1` the “activity change, negative = inhibition” value was inactive: -19.2%.
For `Cc1cccc(COCC(Cc2ccccc2)N2CCN(C(=O)c3cccc(Cl)c3)CCC2=O)c1` (stereo not given), the Potency was active: 20.6 µM.
For `CC(C)(C)NC(=O)NC(=O)CN1CCN(c2ncc(C(F)(F)F)cc2Cl)CC1`, the Potency was inconclusive: 18.4 µM [falling, single point].
With `Cc1ccc(NS(=O)(=O)c2ccc3c(c2)CCN3C(=O)C2CC2)c(C)c1` the Potency was inconclusive: 14.6 µM [falling, partial curve, poor fit].
With `Cc1ccc(NC(=O)c2ccc3c(O)c(S(=O)(=O)c4ccc(Cl)cc4)c(=O)[nH]c3c2)cc1` the Potency was inconclusive: 20.6 µM [activator, partial curve, poor fit].
For `CCOC(=O)C1CCCN(C(=O)Cn2ncc3c(C)n(Cc4ccc(Cl)cc4)c(C)c3c2=O)C1` (stereo not given), the Potency was inconclusive: 23.1 µM [falling, single point].
For `CCCCNC(=O)CCc1c(C)nc2nc(-c3cc(OC)cc(OC)c3)nn2c1C`, the Potency was inconclusive: 29.1 µM [activator, single point].
For `CCOC(=O)CCc1c(C)c2ccc(OCC)c(C)c2oc1=O`, the “activity change, negative = inhibition” value was inactive: 16.8%.
In the case of `Cc1c(CN(C)C)c2c(n1C)C(=O)c1ccc(Br)cc1-2`, the Potency is reported as inconclusive: 32.6 µM [falling, single point].
With `O=C(NCCCCc1ccccc1)C1CC(c2cccc(F)c2)=NO1` (stereo not given) the “activity change, negative = inhibition” value was inactive: 2.28%.
With `CCN(CC)c1ccc(/C=N/N2C(C)CCCC2C)c(O)c1` (stereo not given) the Potency was inconclusive: 6.51 µM [falling, partial curve, poor fit].
For `CC(C)c1ccccc1NC(=O)C(Cc1c[nH]c2ccccc12)NC(=O)OC(C)(C)C` (stereo not given), the Potency was inconclusive: 18.4 µM [falling, single point].
In the case of `CC(=O)SC1CC(=O)N(c2c(C)cccc2C)C1=O` (stereo not given), the Potency is reported as inconclusive: 0.58 µM [falling, single point].
With `Cc1cccc(N2CCN(C(=O)Cn3c(C)c4cnn(-c5ccccc5)c(=O)c4c3C)CC2)c1C` the Potency was inconclusive: 29.1 µM [falling, single point].
With `CC(=O)c1ccc(Nc2cnn(C34CC5CC(CC(CC(=O)O)(C5)C3)C4)c(=O)c2Cl)cc1` the Potency was inconclusive: 0.206 µM [falling, full curve, poor fit].
For `Cc1ccc(N2C(=O)[C@@H]3[C@H](C2=O)C2c4ccccc4C=CN2[C@@H]3C(=O)c2ccco2)c(C)c1` (stereo not given in full), the “activity change, negative = inhibition” value was inactive: 2.97%.
For `CCn1c(SCC(=O)N2CCN(C)CC2)nc2c1c(=O)n(C)c(=O)n2C`, the Potency was inconclusive: 3.26 µM [falling, full curve, poor fit].
With `COC(=O)Cc1[nH]n(-c2nc3ccccc3s2)c(=O)c1C(C)=Nc1ccc(C)cc1` the Potency was inconclusive: 29.1 µM [activator, single point].
In the case of `O=C(N/N=C/c1ccccn1)c1ccc(NC(=O)c2cccc([N+](=O)[O-])c2)cc1`, the “activity change, negative = inhibition” value is reported as inactive: 18.8%.
In the case of `Cc1nn(-c2ccccc2)c(C)c1C(=O)NCCc1ccccc1`, the Potency is reported as inconclusive: 4.11 µM [activator, full curve].
For `O=C(NNC(=O)c1sc2cccc(Cl)c2c1Cl)Nc1ccccc1`, the Potency was inconclusive: 25.9 µM [falling, partial curve, poor fit].
In the case of `Nc1ncnc2c1nc(Cl)n2[C@@H]1O[C@H](CO)[C@@H](O)[C@@H]1O`, the Potency is reported as active: 20.6 µM.
With `Cc1ccc(O)c(-c2cc3ccccc3[nH]2)c1` the Potency was inconclusive: 3.26 µM [activator, partial curve, poor fit].
In the case of `COc1ccc(CCN(C)CC(O)COc2c(C)ccc(C)c2C)cc1OC` (stereo not given), the Potency is reported as inconclusive: 0.82 µM [falling, full curve, poor fit].
With `O=P(O)(O)c1cc(-c2ccccc2)oc1-c1ccccc1` the Potency was inconclusive: 29.1 µM [falling, single point].
For `COc1ccccc1NS(=O)(=O)c1cc(C(=O)N2CCN(C/C=C/c3ccccc3)CC2)ccc1C`, the Potency was inconclusive: 29.1 µM [falling, single point].
In the case of `Cc1cc2ccccc2c(=O)[nH]1`, the Potency is reported as inconclusive: 5.17 µM [falling, full curve].
For `Cc1ccc(NC(=O)Cc2ccccc2F)cc1S(=O)(=O)N1CCCCCC1`, the Potency was inconclusive: 29.1 µM [falling, single point].
In the case of `O=C(CN1CCOCC1)Nc1ccc(Br)cc1`, the Potency is reported as inconclusive: 29.1 µM [activator, single point].
In the case of `CC(=O)Nc1ccc(NC(=O)c2c(-c3ccccc3)noc2C)cn1`, the Potency is reported as active: 7.31 µM.
In the case of `NC(=O)c1c(NC(=O)CN2CCN(S(=O)(=O)c3ccccc3)CC2)sc2c1CCC2`, the Potency is reported as active: 18.4 µM.
For `COc1ccc(Cl)cc1Nc1ncnc2sc(C)c(S(=O)(=O)N3CCC(C)CC3)c12`, the “activity change, negative = inhibition” value was inactive: -5.23%.
In the case of `O=C1CSCN1c1cc(Cl)ccc1Cl`, the Potency is reported as inconclusive: 29.1 µM [activator, single point].
In the case of `Cc1nc(NCc2ccccc2)c2cc[nH]c2n1`, the Potency is reported as inconclusive: 32.6 µM [falling, single point].
With `CCc1ccc2occ(CC(=O)Nc3ccc(OC)c(Cl)c3)c2c1` the “activity change, negative = inhibition” value was inactive: -29.6%.
For `N#Cc1c(-n2ccnc2)cccc1-n1ccnc1`, the Potency was inconclusive: 2.91 µM [activator, full curve, poor fit].
For `CCOc1ccc(C(=O)Oc2c(Sc3ccccc3)c(C)nn2C(C)(C)C)cc1OCC`, the activity change, negative = inhibition was inactive: -4.81% [at 9.27 µM].
In the case of `Cc1ccc2c(c1)NC(=O)c1cccnc1N2`, the Potency is reported as inconclusive: 3.66 µM [activator, full curve].
In the case of `COc1ccc(NC(=S)N2CCC(c3ccccc3)C2)cc1` (stereo not given), the Potency is reported as inconclusive: 7.31 µM [activator, partial curve].
For `COc1ccc(NC(=O)c2c(Nc3ccccc3)sc(C(=O)c3ccc(F)cc3)c2N)cc1`, the Potency was inconclusive: 20.6 µM [falling, single point].
With `CC(=O)c1ccc(NC(=O)Nc2sc3nc4n(c(=O)c3c2C)CCC(C)CC4)cc1` (stereo not given) the “activity change, negative = inhibition” value was inactive: 4.22%.
In the case of `CC(C)C(OC(=O)c1cc2sccc2n1C)C(=O)NCC1CCCO1` (stereo not given), the “activity change, negative = inhibition” value is reported as inactive: -17.6%.
With `CSc1ncccc1C(=O)Nc1cccc(S(=O)(=O)N2CCCCC2)c1` the Potency was inconclusive: 20.6 µM [falling, single point].
For `COc1cccc(C2C(C(=O)c3cc4ccccc4o3)=C(O)C(=O)N2CCN2CCOCC2)c1` (stereo not given), the Potency was inconclusive: 18.4 µM [falling, single point].
In the case of `Cc1ccc(NC(=S)C2=C(O)c3ccccc3N(C)S2(=O)=O)cc1`, the Potency is reported as inconclusive: 23.1 µM [falling, partial curve, poor fit].
With `COc1ccc(OCC(=O)Nc2ccc(C)c(S(=O)(=O)N(C)C)c2)cc1` the Potency was inconclusive: 29.1 µM [activator, single point].
With `CSc1ccc(-c2nc3cccc(C)n3c2Nc2ccc3c(c2)OCO3)cc1` the Potency was inconclusive: 1.64 µM [activator, partial curve].
In the case of `COc1ccc(-c2nnc(NC(=O)c3ccc(S(=O)(=O)N4CCCc5ccccc54)cc3)o2)cc1`, the Potency is reported as active: 14.1 µM.
In the case of `CCOC(=O)Cc1nnc(Nc2ccc(C)cc2)c2ccccc12`, the Potency is reported as inconclusive: 11.6 µM [falling, partial curve, poor fit].
In the case of `COc1cc(NC(=O)c2ccccc2C)c(OC)cc1NC(=O)CN1CCOCC1`, the Potency is reported as inconclusive: 6.51 µM [falling, partial curve, poor fit].
In the case of `Cc1ccc(C(=O)C(C)OC(=O)Cn2[nH]c(=O)c3ccccc3c2=O)cc1C` (stereo not given), the Potency is reported as inconclusive: 0.366 µM [falling, partial curve, poor fit].
For `CCCCNC(=O)CCc1c(C)nc2cc(-c3ccccc3)nn2c1C`, the Potency was inconclusive: 2.31 µM [falling, full curve].
With `CS(=O)(=O)Nc1ccc(C2=NN(S(C)(=O)=O)C(c3ccc4c(c3)OCO4)C2)cc1` (stereo not given) the Potency was inconclusive: 9.2 µM [activator, partial curve, poor fit].
For `COc1ccc(N2C(=O)C(CC(=O)Nc3ccccc3)N(CCC3=CCCCC3)C2=O)cc1` (stereo not given), the “activity change, negative = inhibition” value was inactive: -18.6%.
With `CCNC(=O)NC(=O)C(C)Oc1ccc(Br)cc1Br` (stereo not given) the Potency was inconclusive: 13 µM [activator, partial curve].
With `Cc1cc(C(=O)CSc2nc3ccccc3c(=O)n2C)c(C)n1Cc1ccc2c(c1)OCO2` the Potency was inconclusive: 0.461 µM [falling, full curve, poor fit].
For `Cc1ccc(-n2nnc(-c3nccs3)n2)cc1`, the Potency was inconclusive: 29.1 µM [falling, single point].
For `O=C(NN=Cc1ccc(N2CCOCC2)s1)c1ccc([N+](=O)[O-])cc1`, the Potency was inconclusive: 29.1 µM [falling, single point].
In the case of `COc1ccc(NC(=S)Nc2ncccc2C)c(OC)c1`, the Potency is reported as inconclusive: 2.31 µM [activator, full curve, poor fit].
With `CCCc1cc(C(=O)NCCc2ccccc2)no1` the Potency was inconclusive: 16.4 µM [activator, single point].
